Source: patent US20160046703A1 (ORGENTEC DIAGNOSTIKA, published 2016)
Changes are numbered by the printed parent chain. Results are given in words; binding and its absence hold for the method and conditions named. Some entries that bind do so weakly or less than the wild type.

The chains behind the UniProt entries cited, without tags or fusion partners. Residues count along the entry.
UniProt P02749, residues 20-345: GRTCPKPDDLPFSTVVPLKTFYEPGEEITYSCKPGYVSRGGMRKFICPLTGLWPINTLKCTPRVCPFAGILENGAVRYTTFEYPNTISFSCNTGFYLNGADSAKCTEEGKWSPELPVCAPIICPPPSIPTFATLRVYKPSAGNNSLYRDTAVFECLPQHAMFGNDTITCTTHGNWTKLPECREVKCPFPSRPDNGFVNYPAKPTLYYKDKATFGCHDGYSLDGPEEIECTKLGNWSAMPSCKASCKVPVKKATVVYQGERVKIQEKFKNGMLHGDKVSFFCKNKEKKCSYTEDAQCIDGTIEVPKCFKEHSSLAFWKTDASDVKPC

B1: single-chain multifunctional CAD-IgM-IgA-IgG modubody (designed binder, not shown: small tags and cut ends)
chain: LVPRGSDVLMTQTPLSLPVSLGDQASISCRSSQSIVHSNGNTYLEWYLQKPGQSPKLLIYKVSNRFSGVPDRFSGSGSGTDFTLKISRVEAEDLGVYYCFQGSHVPYTFGGGTKLEIKRTGSGSGGGGSGGGGSGGGGSSGGGGSGGGGSGGGGSGSGEVQLQQSGPELVKPGASVKISCKASGYTFTDYYMHWVRQRPGQGLEWIGEIYPGSGNTSYNEKFRGKATLTADKSSSTAYMQLSSLTSEDSAVYFCARGTLDYTMDYWGQGTSVTVSSGSGGGGSGGGGSGGGGSSGGGGSGGGGSGGGGSGSGQDTAIRVFAIPPSFASIFLTKSTKLTCLVTDLTTYDSVTISWTRQNGEAVKTHTSISESHPSATFSAVGEASISEDDWNSGERFTCTVTHTDLPSPLKQTISRPKGGSGGGGSGGGGSGGGGSSGGGGSGGGGSGGGGSGSGRPEVHLLPPPSEELALNELVTLTCLARGFSPKDVLVRWLQGSQELPREKYLTWASRQEPSQGTTTFAVTSILRVAAEDWKKGDTFSCMVGHEALPLAFTQKTIDRGSGGGGSGGGGSGGGGSSGGGGSGGGGSGGGGSGSGEPQVYTLPPSREEMTKNQVSLTCLVKGFYPSDIAVEWESNGQPENNYKTTPPVLDSDGSFFLYSKLTVDKSRWQQGNVFSCSVMHEALHNHYTQKSLSL
B2: scFv-CAD β2-glycoprotein-binding module (artificial protein sequence scFv-RP-CAD-P) (scFv)
scFv: LVPRGSDVLMTQTPLSLPVSLGDQASISCRSSQSIVHSNGNTYLEWYLQKPGQSPKLLIYKVSNRFSGVPDRFSGSGSGTDFTLKISRVEAEDLGVYYCFQGSHVPYTFGGGTKLEIKRTGSGSGGGGSGGGGSGGGGSSGGGGSGGGGSGGGGSGSGEVQLQQSGPELVKPGASVKISCKASGYTFTDYYMHWVRQRPGQGLEWIGEIYPGSGNTSYNEKFRGKATLTADKSSSTAYMQLSSLTSEDSAVYFCARGTLDYTMDYWGQGTSVTVSS
notes: Expressed in E. coli from pQE-80L as a 30 kDa protein; also called CAD-scFv; scFV-CAD reaction module; not shown: RGS-6xHis tag from expression vector pQE-80L (detected with anti-RGS-6xHis antib)
B3: single-chain CAD-IgG-CH3-Knob02 modubody (designed binder)
chain: LVPRGSDVLMTQTPLSLPVSLGDQASISCRSSQSIVHSNGNTYLEWYLQKPGQSPKLLIYKVSNRFSGVPDRFSGSGSGTDFTLKISRVEAEDLGVYYCFQGSHVPYTFGGGTKLEIKRTGSGSGGGGSGGGGSGGGGSSGGGGSGGGGSGGGGSGSGEVQLQQSGPELVKPGASVKISCKASGYTFTDYYMHWVRQRPGQGLEWIGEIYPGSGNTSYNEKFRGKATLTADKSSSTAYMQLSSLTSEDSAVYFCARGTLDYTMDYWGQGTSVTVSSGSGGGGSGGGGSGGGGSSGGGGSGGGGSGGGGSGSGEPQVYTLPPSREEMTKNQVSLYCLVKGFYPSDIAVEWESNGQPENNYKTYPPVLDSDGSFYLYSKLTVDKSRWQQGNVFSCSVMHEALHNHYTQKSLSL
notes: Domain order is VL-linker-VH-linker-IgG-CH3-Knob02, 44 kDa, made in E. coli; also called CAD-IgG-CH3-Knob32 (as misprinted once); not shown: RGS-6xHis tag from vector pQE-80L
B4: single-chain CAD-IgG-CH3 modubody (designed binder, not shown: small tags and cut ends)
chain: B3 chain with Y334T, Y362T, Y373F

Each binder was assayed against β2-glycoprotein (UniProt P02749) (assay: binding activity followed during purification).

binding, binds:
B1
B2
B3
B4
